Results deposited as PubChem BioAssay AID1159597 (NIAID, 2016)
In all, the deposit lists 756 reagents; this is a random part of them. 140 of them (19%) were called active. 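Calls mark clear shifts in either direction, lowered or raised; calls are per siRNA, gene-level medians over six siRNAs not deposited.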 The numbers tell different reagents against one gene apart. Not given: the amount of reagent.

Assay: 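Role of canonical TLR signalling genes in the human macrophage LPS response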
System: human THP-1 B5 reporter clone (monocytic leukaemia line), PMA-differentiated to macrophage-like cells
Knock-down reagent: single siRNA against human genes
Time to read-out: LPS for 4 h before read-out; assayed 48 to 72 h after siRNA transfection
Treatment: LPS (Salmonella minnesota R595) for 4 h; concentration not given
Read-out: 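After 4 h LPS, firefly TNF promoter luciferase over renilla, as a plate median/MAD robust z-score averaged across replicates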
Direction: TNF reporter z-score: higher = stronger TNF promoter activity after LPS
Call rule: In these data the active calls have TNF reporter z-score, replicate mean at about -1.5 or lower, or at about 1.53 or higher
Meaning of the calls: active = clear shift in reporter, either direction; inactive = little shift in reporter

| target gene | reagent no. | TNF reporter z-score, replicate mean | Outcome |
| --- | --- | --- | --- |
| ELF4 (E74 like ETS transcription factor 4) | 1 | -2.27 | active |
| ELF4 (E74 like ETS transcription factor 4) | 2 | -3.4 | active |
| ELF4 (E74 like ETS transcription factor 4) | 3 | -0.965 | inactive |
| ELF4 (E74 like ETS transcription factor 4) | 4 | 0.703 | inactive |
| ELF4 (E74 like ETS transcription factor 4) | 5 | -1.29 | inactive |
| ELF4 (E74 like ETS transcription factor 4) | 6 | -1.72 | active |
| SIGIRR (single Ig and TIR domain containing) | 1 | -0.428 | inactive |
| SIGIRR (single Ig and TIR domain containing) | 2 | -0.405 | inactive |
| SIGIRR (single Ig and TIR domain containing) | 3 | -0.287 | inactive |
| SIGIRR (single Ig and TIR domain containing) | 4 | 0.196 | inactive |
| SIGIRR (single Ig and TIR domain containing) | 5 | -0.434 | inactive |
| SIGIRR (single Ig and TIR domain containing) | 6 | -0.238 | inactive |
| MAP3K7 (mitogen-activated protein kinase kinase kinase 7) | 1 | -1.58 | active |
| MAP3K7 (mitogen-activated protein kinase kinase kinase 7) | 2 | -2.99 | active |
| MAP3K7 (mitogen-activated protein kinase kinase kinase 7) | 3 | -2.84 | active |
| MAP3K7 (mitogen-activated protein kinase kinase kinase 7) | 4 | -1.53 | active |
| MAP3K7 (mitogen-activated protein kinase kinase kinase 7) | 5 | -2.02 | active |
| MAP3K7 (mitogen-activated protein kinase kinase kinase 7) | 6 | -1.3 | inactive |
| IRF5 (interferon regulatory factor 5) | 1 | -4.09 | active |
| IRF5 (interferon regulatory factor 5) | 2 | -0.413 | inactive |
| IRF5 (interferon regulatory factor 5) | 3 | 0.549 | inactive |
| IRF5 (interferon regulatory factor 5) | 4 | -0.0109 | inactive |
| IRF5 (interferon regulatory factor 5) | 5 | -0.978 | inactive |
| IRF5 (interferon regulatory factor 5) | 6 | 0.549 | inactive |
| TANK (TRAF family member associated NFKB activator) | 1 | -0.421 | inactive |
| TANK (TRAF family member associated NFKB activator) | 2 | 0.2 | inactive |
| TANK (TRAF family member associated NFKB activator) | 3 | -0.846 | inactive |
| TANK (TRAF family member associated NFKB activator) | 4 | 0.359 | inactive |
| TANK (TRAF family member associated NFKB activator) | 5 | -1.1 | inactive |
| TANK (TRAF family member associated NFKB activator) | 6 | -0.52 | inactive |
| TAB1 (TGF-beta activated kinase 1 (MAP3K7) binding protein 1) | 1 | -0.789 | inactive |
| TAB1 (TGF-beta activated kinase 1 (MAP3K7) binding protein 1) | 2 | -1.07 | inactive |
| TAB1 (TGF-beta activated kinase 1 (MAP3K7) binding protein 1) | 3 | -0.0413 | inactive |
| TAB1 (TGF-beta activated kinase 1 (MAP3K7) binding protein 1) | 4 | -1.04 | inactive |
| TAB1 (TGF-beta activated kinase 1 (MAP3K7) binding protein 1) | 5 | -0.361 | inactive |
| TAB1 (TGF-beta activated kinase 1 (MAP3K7) binding protein 1) | 6 | -1.7 | active |
| PELI1 (pellino E3 ubiquitin protein ligase 1) | 1 | -0.361 | inactive |
| PELI1 (pellino E3 ubiquitin protein ligase 1) | 2 | -0.544 | inactive |
| PELI1 (pellino E3 ubiquitin protein ligase 1) | 3 | 2 | active |
| PELI1 (pellino E3 ubiquitin protein ligase 1) | 4 | -0.909 | inactive |
| PELI1 (pellino E3 ubiquitin protein ligase 1) | 5 | -0.14 | inactive |
| PELI1 (pellino E3 ubiquitin protein ligase 1) | 6 | -0.309 | inactive |
| EGR1 (early growth response 1) | 1 | -1.62 | active |
| EGR1 (early growth response 1) | 2 | -2.62 | active |
| EGR1 (early growth response 1) | 3 | -3.13 | active |
| EGR1 (early growth response 1) | 4 | -0.743 | inactive |
| EGR1 (early growth response 1) | 5 | 0.538 | inactive |
| EGR1 (early growth response 1) | 6 | -0.674 | inactive |
| TRAF3 (TNF receptor associated factor 3) | 1 | -0.903 | inactive |
| TRAF3 (TNF receptor associated factor 3) | 2 | -0.726 | inactive |
| TRAF3 (TNF receptor associated factor 3) | 3 | -1.19 | inactive |
| TRAF3 (TNF receptor associated factor 3) | 4 | -0.832 | inactive |
| TRAF3 (TNF receptor associated factor 3) | 5 | -0.485 | inactive |
| TRAF3 (TNF receptor associated factor 3) | 6 | 0.159 | inactive |
| SP1 (Sp1 transcription factor) | 1 | -3.9 | active |
| SP1 (Sp1 transcription factor) | 2 | -1.61 | active |
| SP1 (Sp1 transcription factor) | 3 | 0.877 | inactive |
| SP1 (Sp1 transcription factor) | 4 | 1.71 | active |
| SP1 (Sp1 transcription factor) | 5 | 0.973 | inactive |
| SP1 (Sp1 transcription factor) | 6 | -0.392 | inactive |
| MAP2K7 (mitogen-activated protein kinase kinase 7) | 1 | -1.3 | inactive |
| MAP2K7 (mitogen-activated protein kinase kinase 7) | 2 | -1.89 | active |
| MAP2K7 (mitogen-activated protein kinase kinase 7) | 3 | -0.751 | inactive |
| MAP2K7 (mitogen-activated protein kinase kinase 7) | 4 | -0.957 | inactive |
| MAP2K7 (mitogen-activated protein kinase kinase 7) | 5 | -2.44 | active |
| MAP2K7 (mitogen-activated protein kinase kinase 7) | 6 | -0.427 | inactive |
| PTK2B (protein tyrosine kinase 2 beta) | 1 | -0.994 | inactive |
| PTK2B (protein tyrosine kinase 2 beta) | 2 | -0.862 | inactive |
| PTK2B (protein tyrosine kinase 2 beta) | 3 | 0.829 | inactive |
| PTK2B (protein tyrosine kinase 2 beta) | 4 | -0.97 | inactive |
| PTK2B (protein tyrosine kinase 2 beta) | 5 | -1.39 | inactive |
| PTK2B (protein tyrosine kinase 2 beta) | 6 | -1.45 | inactive |
| LY96 (lymphocyte antigen 96) | 1 | -0.0226 | inactive |
| LY96 (lymphocyte antigen 96) | 2 | -1.25 | inactive |
| LY96 (lymphocyte antigen 96) | 3 | -1.44 | inactive |
| LY96 (lymphocyte antigen 96) | 4 | -1.53 | active |
| LY96 (lymphocyte antigen 96) | 5 | -0.253 | inactive |
| LY96 (lymphocyte antigen 96) | 6 | -1.84 | active |
| TLR1 (toll like receptor 1) | 1 | -0.076 | inactive |
| TLR1 (toll like receptor 1) | 2 | -0.173 | inactive |
| TLR1 (toll like receptor 1) | 3 | 0.72 | inactive |
| TLR1 (toll like receptor 1) | 4 | 0.957 | inactive |
| TLR1 (toll like receptor 1) | 5 | -0.108 | inactive |
| TLR1 (toll like receptor 1) | 6 | -0.18 | inactive |

Part of the list above, set out differently.
PTK2B (protein tyrosine kinase 2 beta) #6: TNF reporter z-score, replicate mean = -1.45; Outcome = inactive
LY96 (lymphocyte antigen 96) #1: TNF reporter z-score, replicate mean = -0.0226; Outcome = inactive
LY96 (lymphocyte antigen 96) #2: TNF reporter z-score, replicate mean = -1.25; Outcome = inactive
LY96 (lymphocyte antigen 96) #3: TNF reporter z-score, replicate mean = -1.44; Outcome = inactive
LY96 (lymphocyte antigen 96) #4: TNF reporter z-score, replicate mean = -1.53; Outcome = active
LY96 (lymphocyte antigen 96) #5: TNF reporter z-score, replicate mean = -0.253; Outcome = inactive
LY96 (lymphocyte antigen 96) #6: TNF reporter z-score, replicate mean = -1.84; Outcome = active
TLR1 (toll like receptor 1) #1: TNF reporter z-score, replicate mean = -0.076; Outcome = inactive
TLR1 (toll like receptor 1) #2: TNF reporter z-score, replicate mean = -0.173; Outcome = inactive
TLR1 (toll like receptor 1) #3: TNF reporter z-score, replicate mean = 0.72; Outcome = inactive
TLR1 (toll like receptor 1) #4: TNF reporter z-score, replicate mean = 0.957; Outcome = inactive
TLR1 (toll like receptor 1) #5: TNF reporter z-score, replicate mean = -0.108; Outcome = inactive
